This passage reports odorant receptor activation results from the odorant receptor screen of Mainland et al. (2015).

Some test systems named below: OR8G5 clone 1493; OR8H1 clone 1388; OR8H3 P137S clone 1215; OR8I2 clone 1213; OR8J1 Y120C clone 1500; OR8J3 clone 1149; OR8K1 clone 1431; OR8K3 L122R clone 1195; OR8K5 clone 1150; OR8U1 clone 1242; OR8U8 clone 1499; OR8U9 clone 1439; OR9A2 clone 1080; OR9A4 clone 1081; OR9G1 clone 1111; OR9G4 N191D clone 1109; OR9G9 clone 1170; OR9I1 clone 1180.
Common to all, as to assay: odorant receptor activation (CRE luciferase / Renilla) (fold of no-odor wells); higher = more activation
What all share (conditions): 100 µM

Test [1] relates to OR8H2 A105V/I154M/V158L/Y169C/D170Y/Y259H/V284M clone 1214.
Test [2] deals with OR8S1 M48V/L82P/R128C/A198T clone 1279.

Structures are written as SMILES. Several values for one entry are separate records, joined by “and”; a condition that tells them apart may be missing. Identical values can stand only once. The list shows a part of the results. Single wells; the ratio to wells without odorant was worked out here, and repeats agree poorly.

In the case of `CCC(C)=O` [2-butanone], the odorant receptor activation in the test on OR8G5 clone 1493 was 1.05; with OR8H1 clone 1388, 1.5; in test [1], 0.769; in the test on OR8H3 P137S clone 1215 it was 0.594; with OR8I2 clone 1213, 0.903; in the test with OR8J1 Y120C clone 1500, 0.91. The odorant receptor activation with OR8J3 clone 1149 is 0.946; in the test on OR8K1 clone 1431, 0.906; in the test on OR8K3 L122R clone 1195 it was 0.636; with OR8K5 clone 1150, 0.717; in test [2], 1.17; in the test on OR8U1 clone 1242, 1.32. Further, the odorant receptor activation in the test with OR8U8 clone 1499 was determined as 1.07; in the test with OR8U9 clone 1439, 1.06; in the test on OR9A2 clone 1080, 7.26; with OR9A4 clone 1081, 2.71; with OR9G1 clone 1111 it was 26.3; in the test with OR9G4 N191D clone 1109, 4.02. Further, the odorant receptor activation in the test with OR9G9 clone 1170 worked out at 1.17; in the test on OR9I1 clone 1180 it was 1.42.

As for `CCOc1cc(C=O)ccc1O` [ethyl vanillin], the odorant receptor activation in the test with OR8G5 clone 1493 is 0.919 and 2.2 and 0.978; with OR8H1 clone 1388, 1.6 and 0.975; in [1], 1.65 and 1.21; with OR8H3 P137S clone 1215 it was 1.34 and 0.974; in the test with OR8I2 clone 1213, 1.27 and 1.08; in the test with OR8J1 Y120C clone 1500, 1.21 and 2.33 and 1.32. Also, the odorant receptor activation in the test on OR8J3 clone 1149 was 2.31 and 1.13; with OR8K1 clone 1431 it was 1.22; in the test on OR8K3 L122R clone 1195, 1.56 and 1.2; in the test on OR8K5 clone 1150, 1.39 and 1.23; in test [2] it was 1.02; in the test with OR8U1 clone 1242, 0.541 and 1.38. Moreover, the odorant receptor activation is 1.27 and 2.39 and 1.25 in the test on OR8U8 clone 1499; 1.09 and 1.24 in the test with OR8U9 clone 1439; 1.17 in the test on OR9A2 clone 1080; 2 and 1.19 with OR9A4 clone 1081; 1.67 and 1.29 with OR9G1 clone 1111; 0.903 and 1.15 in the test on OR9G4 N191D clone 1109. Further, the odorant receptor activation was 1.31 and 1.04 with OR9G9 clone 1170; 1.62 and 1.16 in the test on OR9I1 clone 1180.

As to `CS` [methanethiol], the odorant receptor activation is 0.982 with OR8G5 clone 1493; 1.15 in the test with OR8H1 clone 1388; 1.01 in [1]; 1.02 with OR8H3 P137S clone 1215; 1.29 in the test on OR8I2 clone 1213; 0.964 in the test on OR8J1 Y120C clone 1500. Further, the odorant receptor activation in the test with OR8J3 clone 1149 is 0.881; in the test on OR8K1 clone 1431, 0.977; with OR8K3 L122R clone 1195, 0.895; in the test on OR8K5 clone 1150, 0.858; in test [2] it was 0.84; in the test on OR8U1 clone 1242, 0.912. The odorant receptor activation was 0.903 in the test on OR8U8 clone 1499; 1.23 in the test with OR8U9 clone 1439; 1.13 in the test on OR9A2 clone 1080; 1.09 with OR9A4 clone 1081; 1.1 in the test with OR9G1 clone 1111; 1.22 in the test with OR9G4 N191D clone 1109. Moreover, the odorant receptor activation is 0.988 in the test with OR9G9 clone 1170 and 0.925 in the test on OR9I1 clone 1180.

`CCCCOC(C)=O` [butyl acetate]: the odorant receptor activation stood at 1.12 with OR8G5 clone 1493; 0.2 in the test on OR8H1 clone 1388; 0.919 in test [1]; 1.05 in the test with OR8H3 P137S clone 1215; 0.871 in the test on OR8I2 clone 1213; 1.36 with OR8J1 Y120C clone 1500. Besides, the odorant receptor activation with OR8J3 clone 1149 was determined as 1.01; in the test on OR8K1 clone 1431, 0.107; with OR8K3 L122R clone 1195, 1.02; in the test on OR8K5 clone 1150, 0.91; in [2] it was 0.746; in the test with OR8U1 clone 1242, 1.12. Also, the odorant receptor activation with OR8U8 clone 1499 worked out at 1.18; in the test with OR8U9 clone 1439 it was 0.125; in the test on OR9A2 clone 1080 it was 1.36; in the test on OR9A4 clone 1081 it was 1.1; with OR9G1 clone 1111 it was 1.01; in the test with OR9G4 N191D clone 1109, 1.16. Besides, the figures for the odorant receptor activation in the test with OR9G9 clone 1170 and with OR9I1 clone 1180 were 1.09 and 0.829, respectively.
